Test results taken from US9828349B2, “1-aryl-1-hydroxy-2,3-diamino-propyl amines, 1-heteroaryl-1-hydroxy-2,3-diamino-propyl amines and related compounds having analgesic and/or immuno stimulant activity” (Allergan, Inc., priority 2005, dated 2017).

System: tactile allodynia (Chung model)
Assay: Chung model: reversal of tactile allodynia after spinal nerve ligation (von Frey hairs)
Format: in vivo
Conditions: rat
Source text: An art-accepted model or assay for measuring an analgesic effect of a compound in chronic pain (in particular peripheral neuropathy) is the model known as Kim and Chung 1992, Pain […], pp 355-363 (Chung model). This model involves the surgical ligation of the L5 (and optionally the L6) spinal nerves on one side in experimental animals. Rats recovering from the surgery gain weight and display a level of general activity similar to that of normal rats. However, these rats develop abnormalities of the foot, wherein the hindpaw is moderately everted and the toes are held together. More importantly, the hindpaw on the side affected by the surgery appears to become sensitive to low-threshold mechanical stimuli and will perceive pain instead of the faint sensation of touch. This sensitivity to normally non-painful touch, called “tactile allodynia”, develops within the first week after surgery and lasts for at least two months. The allodynia response includes lifting the affected hindpaw to escape from the stimulus, licking the paw and holding it in the air for many seconds. None of these responses is normally seen in the control group.
To produce the tactile allodynia, rats are anesthetized before surgery. The surgical site is shaved and prepared either with betadine or Novacaine. Incision is made from the thoracic vertebra XIII down toward the sacrum. Muscle tissue is separated from the spinal vertebra (left side) at the L4-S2 levels. […]
Tactile allodynia is assessed via von Frey hairs, which are a series of fine hairs with incremental differences in stiffness. […] The applied force has been calculated to range from 0.41 to 15.1 grams. […] The 50% paw withdrawal threshold is determined using the method of Dixon, W. J., Ann. […] Tactile allodynia is measured prior to and 15, 30, and 60 minutes after drug administration. The post-drug threshold is compared to the pre-drug threshold and the percent reversal of tactile sensitivity is calculated based on a normal threshold of 15.1 grams. […]

Structure (SMILES)	time post dose of peak pain reversal (30 μg/kg IP) [min]	time post dose of peak pain reversal (300 μg/kg IP) [min]
N[C@@H](CN1CCCC1)[C@@H](O)c1ccncc1 (racemic) [Compound 46, DL-threo-2-amino-1-(pyridin-4-yl)-3-(pyrrolidin-1-yl)propan-1-ol]	60	
Cl.O=C(N[C@@H](CN1CCOCC1)[C@@H](O)c1ccccc1)OCc1ccccc1 [Compound 1, benzyl L-threo-1-hydroxy-3-morpholino-1-phenylpropan-2-ylcarbamate hydrochloride]		30
CC(=O)O[C@@H](c1ccccc1)[C@H](CN1CCOCC1)NC(=O)OCc1ccccc1.Cl [Compound 3, benzyl L-threo-1-acetoxy-3-morpholino-1-phenylpropan-2-ylcarbamate hydrochloride]		60
